Measurements reported in publication doi:10.1101/2022.06.20.496848.
These are yes or no findings as the source states them, for the method shown. In cells and extracts the contact can be indirect. Some binding calls cover weakened binding; strength is not graded here.

By UniProt entry, the sequences of proteins in these tests, tags left out.
UniProt Q13283: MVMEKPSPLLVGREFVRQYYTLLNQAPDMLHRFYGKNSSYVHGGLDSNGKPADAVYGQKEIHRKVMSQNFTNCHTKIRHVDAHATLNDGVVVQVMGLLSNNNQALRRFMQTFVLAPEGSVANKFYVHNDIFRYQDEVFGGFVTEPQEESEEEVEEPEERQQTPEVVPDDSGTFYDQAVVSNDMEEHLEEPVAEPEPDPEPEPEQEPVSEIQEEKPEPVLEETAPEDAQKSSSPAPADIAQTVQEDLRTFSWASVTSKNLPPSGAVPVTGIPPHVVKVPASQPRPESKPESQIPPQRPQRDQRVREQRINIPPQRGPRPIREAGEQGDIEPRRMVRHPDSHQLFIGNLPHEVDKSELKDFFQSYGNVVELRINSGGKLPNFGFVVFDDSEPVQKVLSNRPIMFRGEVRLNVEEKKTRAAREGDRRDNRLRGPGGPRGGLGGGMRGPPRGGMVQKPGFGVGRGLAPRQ

Target: G3BP1 (human (endogenous in HeLa)) (UniProt Q13283)
Experiment: co-IP

B1: hnRNP R (protein, UniProt O43390 1-633)
chain: MANQVNGNAVQLKEEEEPMDTSSVTHTEHYKTLIEAGLPQKVAERLDEIFQTGLVAYVDLDERAIDALREFNEEGALSVLQQFKESDLSHVQNKSAFLCGVMKTYRQREKQGSKVQESTKGPDEAKIKALLERTGYTLDVTTGQRKYGGPPPDSVYSGVQPGIGTEVFVGKIPRDLYEDELVPLFEKAGPIWDLRLMMDPLSGQNRGYAFITFCGKEAAQEAVKLCDSYEIRPGKHLGVCISVANNRLFVGSIPKNKTKENILEEFSKVTEGLVDVILYHQPDDKKKNRGFCFLEYEDHKSAAQARRRLMSGKVKVWGNVVTVEWADPVEEPDPEVMAKVKVLFVRNLATTVTEEILEKSFSEFGKLERVKKLKDYAFVHFEDRGAAVKAMDEMNGKEIEGEEIEIVLAKPPDKKRKERQAARQASRSTAYEDYYYHPPPRMPPPIRGRGRGGGRGGYGYPPDYYGYEDYYDDYYGYDYHDYRGGYEDPYYGYDDGYAVRGRGGGRGGRGAPPPPRGRGAPPPRGRAGYSQRGAPLGPPRGSRGGRGGPAQQQRGRGSRGSRGNRGGNVGGKRKADGYNQPDSKRRQTNNQQNWGSQPIAQQPLQQGGDYSGNYGYNNDNQEFYQDTYGQQWK
**Q.** With B1 as the binder, how does the binding read?
**A.** binds
